Data taken from PubChem BioAssay AID1671190 (National Center for Advancing Translational Sciences (NCATS), 2021).
In all, about 580,000 compounds went through this assay and about 6,100 (1.1%) were called active. Inconclusive results, whose numbers are uncertain, are shown with a selection of clear calls. Calls follow the shape of the dose curve; as a rule, active = well fitted inhibition curve with a large enough effect; inconclusive = small, poorly fitted or top-dose-only effect, or another doubt; inactive = no such curve, though single readings can be large or run the other way. Where the call is inconclusive, the potency comes from a doubtful curve fit.

The chains behind the UniProt entries cited, without tags or fusion partners. Where a name states a change or a piece, a line headed by the entry shows the natural chain unless it says otherwise.
UniProt P18054: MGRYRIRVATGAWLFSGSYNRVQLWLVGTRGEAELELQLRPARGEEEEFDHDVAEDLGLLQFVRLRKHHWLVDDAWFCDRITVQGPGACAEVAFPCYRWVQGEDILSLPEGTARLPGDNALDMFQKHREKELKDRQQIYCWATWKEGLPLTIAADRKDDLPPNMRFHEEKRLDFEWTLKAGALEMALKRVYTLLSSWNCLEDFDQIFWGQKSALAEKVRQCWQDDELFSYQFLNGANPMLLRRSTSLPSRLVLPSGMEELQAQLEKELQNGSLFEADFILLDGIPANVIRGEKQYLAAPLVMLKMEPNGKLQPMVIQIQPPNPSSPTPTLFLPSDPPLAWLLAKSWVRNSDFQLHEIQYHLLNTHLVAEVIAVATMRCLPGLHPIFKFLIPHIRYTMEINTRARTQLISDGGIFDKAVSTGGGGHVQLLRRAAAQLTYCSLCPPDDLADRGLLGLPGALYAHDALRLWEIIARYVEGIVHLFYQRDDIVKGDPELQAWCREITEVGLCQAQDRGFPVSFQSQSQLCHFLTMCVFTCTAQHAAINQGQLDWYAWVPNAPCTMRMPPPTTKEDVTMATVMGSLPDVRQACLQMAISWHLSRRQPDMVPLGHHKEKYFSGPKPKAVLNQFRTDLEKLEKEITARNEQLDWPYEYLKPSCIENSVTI

biological target: Polyunsaturated fatty acid lipoxygenase ALOX12 (Homo sapiens) (UniProt P18054); assay: Primary qHTS assay for inhibitors of human arachidonate 12S-lipoxygenase (ALOX12): Round 2; conditions: purified 12hLO, xylenol orange hydroperoxide absorbance; activity change, negative = inhibition: at 108 µM (top of the series) unless noted
How it was run: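 Purified human 12hLO at 150 nM in 25 mM Hepes, 0.01% Triton X-100, pH 7.0, preincubated 15 min at room temperature with compound. Reaction started with 40 uM arachidonic acid, 30 min at room temperature. Hydroperoxide measured by Fe-xylenol orange, 573/405 nm absorbance ratio.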
% is scaled to controls: 0 for no effect and ±100 for the full control effect; potency is read from the fitted curve at half-maximal effect.

Row | SMILES | Potency | activity change, negative = inhibition
1 | CC(C)CCNC(=S)Nc1ccccn1 | inconclusive: 50.1 µM [inhibitor, partial curve, poor fit] | 
2 | CCCn1cc(-c2ccnc(NC3CCN(Cc4ccccn4)CC3)n2)c(C)n1 |  | inactive: 62.3%
3 | COc1ccc2c(=O)cc(-c3ccncc3)oc2c1OC |  | inactive: -7.87%
4 | NC(=S)NN=C1c2ccccc2-c2c(F)c(F)c(F)c(F)c21 | inconclusive: 44.7 µM [inhibitor, partial curve, poor fit] | 
5 | Cc1ccc(S(=O)(=O)N(C)Cc2c(C)nn(-c3ccccc3)c2C)cc1 |  | inactive: -51.8%
6 | CC(=O)Nc1ccc(-c2ccnc3c2CC(C)(C(=O)Nc2cccc(C(F)(F)F)c2)O3)cc1 (centres undefined) |  | inactive: -14.4%
7 | CC(Oc1ccccc1F)c1ccnc2nc(/N=C/N(C)C)nn12 (centres undefined) |  | inconclusive: -34.9% [inhibitor]
8 | COc1ccc(-c2nnc(NC(=O)CSc3ccc(C)cc3)s2)cc1OC |  | inactive: -13.1%
9 | O=c1c(-c2ccco2)[n+]([O-])c2ccccc2n1OCc1ccccc1 | active: 39.8 µM | 
10 | COc1cccc(CN2CCCCCC2c2cccs2)c1OC (centres undefined) |  | inactive: -4.58%
11 | O=C(CSc1nnc(-c2ccccn2)o1)Nc1cccc(Cl)c1 | inconclusive: 126 µM [inhibitor, partial curve, poor fit] | 
12 | COc1ccccc1C(C)NCC(=O)NCc1ccc(C)cc1 (centres undefined) |  | inactive: 8.75%
13 | Cc1ccc(C2(c3ccccc3)NC(=O)N(CC(=O)N3CC(=O)Nc4ccccc43)C2=O)cc1C (centres undefined) |  | inactive: -9.54%
14 | O=[N+]([O-])c1cc(Cl)ccc1NCCNS(=O)(=O)c1ccccc1 | inconclusive: 35.5 µM [inhibitor, single point] | 
15 | Cc1ccc2c(c1)N(CC(=O)NC1CCCCC1C)C(=O)CO2 (centres undefined) | inconclusive: 100 µM [inhibitor, single point] | 
16 | COCc1cc(C)n(CC(=O)Nc2ccccc2C(=O)OC)c(=O)c1C#N | inconclusive: 56.2 µM [inhibitor, partial curve, poor fit] | 
17 | Cc1cccc(-c2nc3ccccc3c(=O)n2NC(=S)N(C)C)c1 | inconclusive: 39.8 µM [inhibitor, partial curve, poor fit] | 
18 | Cc1ccc(C)c(C(=O)NC(C)C2CC3CCC2C3)c1 (centres undefined) |  | inactive: -22%
19 | NS(=O)(=O)c1ccc(CCNC(=O)C2CCN(C(=O)Nc3ccccc3)CC2)cc1 | inconclusive: 126 µM [inhibitor, partial curve, poor fit] | 
20 | CC(OC(=O)c1ccc(S(=O)(=O)N2CCCCC2)cc1)C(=O)Nc1ccc(C(N)=O)cc1 (centres undefined) | inconclusive: 100 µM [inhibitor, single point] | 
21 | O=S1(=O)CCN(Cc2ccccc2)c2c(F)nc(N3CCOCC3)c(F)c21 | inconclusive: 15.8 µM [inhibitor, full curve] | 
22 | C#CCOCCOCCOCCNc1nc(N2CCN(C(=O)[C@H](CC(N)=O)n3cc(C(N)[C@@H](C)CC)nn3)CC2)nc(N2CCN(C(=O)[C@H](CCC(=O)O)n3cc([C@@H](N)CCCCN)nn3)CC2)n1 (some centres undefined) | inconclusive: 3.98 µM [inhibitor, full curve, poor fit] | 

One compound at a time, from the list above:
Cc1cccc(-c2nc3ccccc3c(=O)n2NC(=S)N(C)C)c1 is entered as Potency: inconclusive: 39.8 µM [inhibitor, partial curve, poor fit]
Cc1ccc2c(c1)N(CC(=O)NC1CCCCC1C)C(=O)CO2 (centres undefined) is entered as Potency: inconclusive: 100 µM [inhibitor, single point]
O=[N+]([O-])c1cc(Cl)ccc1NCCNS(=O)(=O)c1ccccc1 is entered as Potency: inconclusive: 35.5 µM [inhibitor, single point]

Continued.

Row | SMILES | Potency | activity change, negative = inhibition
23 | N#Cc1ccccc1CSc1nc(C(F)(F)F)nc2ccccc12 |  | inactive: 8.74%
24 | CC1=C(C(=O)Nc2ccc(Cl)cc2)C(c2ccncc2)n2ncc(C(=O)Nc3ccccc3)c2N1 (centres undefined) | inconclusive: 50.1 µM [inhibitor, partial curve, poor fit] | 
25 | CCOc1ccccc1OC(=O)c1cc2ccccc2oc1=O |  | inactive: -9.82%
26 | Cc1cc2c(c(=O)n(-c3ccccc3)c(=O)n2CC(=O)Nc2ccccc2C(F)(F)F)n1C |  | inactive: 8.68%
27 | CN1CCCN(C(=O)C2CCOC2)c2ccccc21 (centres undefined) | inconclusive: 25.1 µM [inhibitor, full curve, poor fit] | 
28 | CC1(C)CC(=O)C2=C(C1)OC(N)=C(C#N)C2c1cccc2ccccc12 (centres undefined) | inconclusive: 141 µM [inhibitor, single point] | 
29 | CNC(=O)NC(=S)NC(=O)c1cccc(Cl)c1 |  | inactive: -23.1%
30 | CC(C)c1nnc(N2C(=O)c3oc4ccccc4c(=O)c3C2c2cccc(O)c2)s1 (centres undefined) | inconclusive: 50.1 µM [inhibitor, partial curve, poor fit] | 
31 | COc1cc(OC)c(OC)cc1CN1CCN(c2ccccc2OC)CC1 | inconclusive: 1.78 µM [inhibitor, full curve, poor fit] | 
32 | O=C(O)c1ccccc1C(=O)NNc1ccc(Cl)cc1Cl | inconclusive: 8.91 µM [inhibitor, full curve] | 
33 | COc1ccc(C(=O)c2cn(Cc3ccc(C)cc3)c3cc4c(cc3c2=O)OCO4)cc1 | inconclusive: 112 µM [inhibitor, partial curve, poor fit] | 
34 | Cn1nc(C(=O)OCC(=O)c2c[nH]c3ccccc23)c2ccccc2c1=O | inconclusive: 3.98 µM [inhibitor, single point] | 
35 | COc1ccc(C(=O)NCCc2ncc(C)n2C2CCC2)c(OC)n1 |  | inactive: 100%
36 | C/C(=N\NC(=O)CNC(=O)C(c1ccccc1)c1ccccc1)c1ccccc1 | inconclusive: 1.12 µM [inhibitor, full curve, poor fit] | 
37 | COc1ccc2nc(N3CCCC(O)C3)c(C#N)cc2c1 (centres undefined) | active: 50.1 µM | 
38 | COc1ccccc1-c1noc(CSc2nc3ccc(C)cc3[nH]2)n1 |  | inactive: 1.02%
39 | COC(=O)C1CCN(Cc2cc(=O)oc3c(C)c(C)ccc23)CC1 | inconclusive: 0.355 µM [inhibitor, full curve, poor fit] | 
40 | CCN(CC)CC(=O)N1CCN(c2nc(C(C)C)c3c(c2C#N)CC(C)(C)OC3)CC1 |  | inactive: -23.7%
41 | CC(CN1CCCCC1)OC(=O)c1ccc(C(C)(C)C)cc1 (centres undefined) | inconclusive: 0.631 µM [inhibitor, full curve, poor fit] | 
42 | CCN1C(=O)[C@@H]2[C@@H](c3ccc(-c4ccccc4)cc3)N3CCC[C@@]3(C(=O)OC)[C@@H]2C1=O | inconclusive: 5.01 µM [inhibitor, full curve, poor fit] | 
43 | c1ccc2c(-c3ccn[nH]3)cccc2c1 | active: 25.1 µM | 
44 | O=C1[C@H](Cc2ccccc2)NCC=CC[C@@H](c2ccc(Cl)cc2)N1Cc1ccccc1 | inconclusive: 5.62 µM [inhibitor, full curve] | 
